Assay results from the supplement of paper PMC10849652.
Some of the results follow.

Protein sequences, listed by entry. Tags and fused reporters are not part of them. Lines headed by an entry give the natural chain unless they say otherwise; changes in a name come on top.
UniProt O60443: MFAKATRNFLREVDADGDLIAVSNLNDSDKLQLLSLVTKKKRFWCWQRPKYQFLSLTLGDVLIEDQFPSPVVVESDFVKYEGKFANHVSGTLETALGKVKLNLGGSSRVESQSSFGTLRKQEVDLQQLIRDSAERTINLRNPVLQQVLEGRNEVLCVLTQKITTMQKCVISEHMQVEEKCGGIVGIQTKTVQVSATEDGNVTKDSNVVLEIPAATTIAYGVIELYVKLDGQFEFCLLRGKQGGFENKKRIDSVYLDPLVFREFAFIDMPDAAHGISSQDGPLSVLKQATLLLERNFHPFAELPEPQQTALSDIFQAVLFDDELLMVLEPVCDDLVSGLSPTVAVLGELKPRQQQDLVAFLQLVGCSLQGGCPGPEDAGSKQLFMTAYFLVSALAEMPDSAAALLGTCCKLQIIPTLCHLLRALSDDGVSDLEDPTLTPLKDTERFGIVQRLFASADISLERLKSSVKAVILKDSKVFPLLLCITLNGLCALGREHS
UniProt Q13888: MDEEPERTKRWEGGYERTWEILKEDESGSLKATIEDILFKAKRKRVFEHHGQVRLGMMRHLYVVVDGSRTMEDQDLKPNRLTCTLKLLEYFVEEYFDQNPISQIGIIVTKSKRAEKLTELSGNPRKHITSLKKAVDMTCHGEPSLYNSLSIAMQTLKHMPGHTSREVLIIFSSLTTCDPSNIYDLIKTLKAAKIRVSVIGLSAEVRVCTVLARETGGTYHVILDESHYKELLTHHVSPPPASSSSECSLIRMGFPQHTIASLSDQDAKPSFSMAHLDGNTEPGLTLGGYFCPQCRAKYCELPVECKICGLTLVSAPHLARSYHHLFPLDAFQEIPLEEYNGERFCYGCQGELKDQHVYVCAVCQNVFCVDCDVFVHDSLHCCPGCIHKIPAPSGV
UniProt Q9H6D7: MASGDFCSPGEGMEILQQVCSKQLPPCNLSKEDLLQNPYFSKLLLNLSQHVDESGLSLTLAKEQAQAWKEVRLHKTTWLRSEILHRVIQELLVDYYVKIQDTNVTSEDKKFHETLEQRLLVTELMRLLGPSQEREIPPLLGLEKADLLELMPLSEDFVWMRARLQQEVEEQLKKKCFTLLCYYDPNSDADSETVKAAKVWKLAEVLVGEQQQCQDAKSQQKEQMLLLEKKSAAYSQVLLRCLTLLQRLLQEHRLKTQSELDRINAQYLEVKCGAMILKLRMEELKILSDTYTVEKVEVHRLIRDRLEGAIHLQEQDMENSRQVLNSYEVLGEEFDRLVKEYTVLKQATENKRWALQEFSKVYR
UniProt Q6P1K8: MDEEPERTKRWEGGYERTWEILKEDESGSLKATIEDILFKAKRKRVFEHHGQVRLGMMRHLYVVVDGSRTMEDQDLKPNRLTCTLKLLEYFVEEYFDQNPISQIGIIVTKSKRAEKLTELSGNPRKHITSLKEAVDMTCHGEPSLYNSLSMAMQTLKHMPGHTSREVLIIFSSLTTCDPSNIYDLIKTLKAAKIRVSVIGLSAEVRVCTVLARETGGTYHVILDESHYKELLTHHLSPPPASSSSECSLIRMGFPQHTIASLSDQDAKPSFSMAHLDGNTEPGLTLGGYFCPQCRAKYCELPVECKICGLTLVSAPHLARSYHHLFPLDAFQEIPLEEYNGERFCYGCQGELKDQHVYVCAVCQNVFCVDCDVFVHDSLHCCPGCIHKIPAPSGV
UniProt O43824: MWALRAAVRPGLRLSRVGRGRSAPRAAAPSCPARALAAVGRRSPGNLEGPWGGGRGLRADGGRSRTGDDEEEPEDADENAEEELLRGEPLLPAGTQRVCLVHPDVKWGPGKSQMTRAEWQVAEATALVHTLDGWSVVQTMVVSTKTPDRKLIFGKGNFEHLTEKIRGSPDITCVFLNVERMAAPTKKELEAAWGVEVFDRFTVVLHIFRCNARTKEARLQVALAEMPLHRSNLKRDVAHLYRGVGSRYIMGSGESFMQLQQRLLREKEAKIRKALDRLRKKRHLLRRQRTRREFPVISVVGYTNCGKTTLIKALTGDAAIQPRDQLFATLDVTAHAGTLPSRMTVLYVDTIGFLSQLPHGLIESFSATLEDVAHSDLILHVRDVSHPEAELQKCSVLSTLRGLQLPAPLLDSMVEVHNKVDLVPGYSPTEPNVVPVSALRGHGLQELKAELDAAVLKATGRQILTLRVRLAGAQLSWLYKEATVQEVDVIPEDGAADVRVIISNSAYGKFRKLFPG
UniProt P16401, whole entry, looked up: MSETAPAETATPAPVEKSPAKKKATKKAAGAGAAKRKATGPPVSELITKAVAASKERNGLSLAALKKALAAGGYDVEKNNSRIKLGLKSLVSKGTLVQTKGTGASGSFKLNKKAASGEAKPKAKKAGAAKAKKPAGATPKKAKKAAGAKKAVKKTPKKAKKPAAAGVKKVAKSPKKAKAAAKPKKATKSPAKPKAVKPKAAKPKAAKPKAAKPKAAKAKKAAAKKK
UniProt Q92759: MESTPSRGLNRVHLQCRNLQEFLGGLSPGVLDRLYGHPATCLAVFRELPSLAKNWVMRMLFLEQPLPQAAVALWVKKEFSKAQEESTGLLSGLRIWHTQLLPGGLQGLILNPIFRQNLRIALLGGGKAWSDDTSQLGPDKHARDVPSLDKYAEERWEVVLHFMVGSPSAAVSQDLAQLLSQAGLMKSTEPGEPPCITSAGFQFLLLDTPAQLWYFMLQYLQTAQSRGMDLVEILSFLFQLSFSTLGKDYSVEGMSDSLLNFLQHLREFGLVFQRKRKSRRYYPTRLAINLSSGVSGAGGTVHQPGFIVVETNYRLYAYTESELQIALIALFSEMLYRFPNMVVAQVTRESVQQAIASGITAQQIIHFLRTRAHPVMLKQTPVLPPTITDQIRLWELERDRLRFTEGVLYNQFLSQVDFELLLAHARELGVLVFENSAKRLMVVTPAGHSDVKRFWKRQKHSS
UniProt P42357: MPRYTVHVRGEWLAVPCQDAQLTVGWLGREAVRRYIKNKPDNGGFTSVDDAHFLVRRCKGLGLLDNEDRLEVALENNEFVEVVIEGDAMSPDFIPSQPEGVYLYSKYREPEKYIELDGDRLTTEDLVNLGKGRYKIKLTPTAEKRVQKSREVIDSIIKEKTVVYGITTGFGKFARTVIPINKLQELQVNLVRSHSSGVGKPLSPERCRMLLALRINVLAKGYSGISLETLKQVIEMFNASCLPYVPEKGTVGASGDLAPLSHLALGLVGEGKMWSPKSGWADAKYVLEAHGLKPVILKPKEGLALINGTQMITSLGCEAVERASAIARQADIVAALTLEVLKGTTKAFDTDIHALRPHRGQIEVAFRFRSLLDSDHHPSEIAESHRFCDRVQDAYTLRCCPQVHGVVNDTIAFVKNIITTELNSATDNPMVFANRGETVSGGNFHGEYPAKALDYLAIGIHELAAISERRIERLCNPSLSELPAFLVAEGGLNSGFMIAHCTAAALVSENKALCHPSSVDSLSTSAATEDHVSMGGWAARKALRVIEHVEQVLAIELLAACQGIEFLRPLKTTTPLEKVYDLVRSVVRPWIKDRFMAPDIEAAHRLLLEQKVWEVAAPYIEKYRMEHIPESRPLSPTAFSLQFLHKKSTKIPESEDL
UniProt Q9NVX0: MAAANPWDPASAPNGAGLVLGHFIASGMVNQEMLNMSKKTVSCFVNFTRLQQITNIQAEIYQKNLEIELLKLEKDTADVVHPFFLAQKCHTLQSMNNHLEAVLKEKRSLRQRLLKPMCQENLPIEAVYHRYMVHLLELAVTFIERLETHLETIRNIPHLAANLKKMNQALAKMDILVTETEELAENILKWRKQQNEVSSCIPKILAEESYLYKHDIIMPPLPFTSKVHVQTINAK
UniProt Q9Y4H4: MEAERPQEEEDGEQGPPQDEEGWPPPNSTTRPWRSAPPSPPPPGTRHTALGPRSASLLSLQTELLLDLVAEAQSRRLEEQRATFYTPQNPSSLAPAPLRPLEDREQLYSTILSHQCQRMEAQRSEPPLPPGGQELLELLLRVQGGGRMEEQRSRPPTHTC
UniProt Q96NT3: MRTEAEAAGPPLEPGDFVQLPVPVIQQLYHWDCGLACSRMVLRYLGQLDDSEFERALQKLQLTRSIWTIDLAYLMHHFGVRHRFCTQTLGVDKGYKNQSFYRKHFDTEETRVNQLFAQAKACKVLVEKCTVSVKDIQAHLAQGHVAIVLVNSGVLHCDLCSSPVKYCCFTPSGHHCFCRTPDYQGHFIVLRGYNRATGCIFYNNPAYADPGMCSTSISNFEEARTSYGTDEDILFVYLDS
UniProt Q9Y5Z7: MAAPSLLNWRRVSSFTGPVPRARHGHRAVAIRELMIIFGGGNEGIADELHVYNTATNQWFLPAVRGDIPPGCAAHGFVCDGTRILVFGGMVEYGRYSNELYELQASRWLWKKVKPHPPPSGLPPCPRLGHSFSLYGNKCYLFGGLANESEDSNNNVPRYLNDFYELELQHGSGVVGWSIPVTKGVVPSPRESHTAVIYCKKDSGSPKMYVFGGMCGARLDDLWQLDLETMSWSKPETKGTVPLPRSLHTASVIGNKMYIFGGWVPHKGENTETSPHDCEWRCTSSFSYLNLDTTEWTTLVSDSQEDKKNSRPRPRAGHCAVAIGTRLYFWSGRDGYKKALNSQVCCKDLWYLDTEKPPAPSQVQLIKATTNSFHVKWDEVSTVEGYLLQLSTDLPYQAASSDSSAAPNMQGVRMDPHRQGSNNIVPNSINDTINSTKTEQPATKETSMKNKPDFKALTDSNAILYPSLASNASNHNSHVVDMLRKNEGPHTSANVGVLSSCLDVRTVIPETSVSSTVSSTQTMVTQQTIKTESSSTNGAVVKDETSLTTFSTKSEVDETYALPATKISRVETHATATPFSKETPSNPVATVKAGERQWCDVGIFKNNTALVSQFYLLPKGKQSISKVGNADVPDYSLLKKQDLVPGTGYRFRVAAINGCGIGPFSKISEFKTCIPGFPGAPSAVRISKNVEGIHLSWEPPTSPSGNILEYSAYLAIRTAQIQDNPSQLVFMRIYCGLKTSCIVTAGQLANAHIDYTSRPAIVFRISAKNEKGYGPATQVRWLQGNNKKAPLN
UniProt P30711: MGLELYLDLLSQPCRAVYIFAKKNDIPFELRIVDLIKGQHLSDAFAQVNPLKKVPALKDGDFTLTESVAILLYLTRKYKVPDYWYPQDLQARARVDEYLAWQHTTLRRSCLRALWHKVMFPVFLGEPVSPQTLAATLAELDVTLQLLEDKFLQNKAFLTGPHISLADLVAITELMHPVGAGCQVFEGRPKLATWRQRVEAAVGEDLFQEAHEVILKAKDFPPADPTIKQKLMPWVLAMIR
UniProt P07305, whole entry, looked up: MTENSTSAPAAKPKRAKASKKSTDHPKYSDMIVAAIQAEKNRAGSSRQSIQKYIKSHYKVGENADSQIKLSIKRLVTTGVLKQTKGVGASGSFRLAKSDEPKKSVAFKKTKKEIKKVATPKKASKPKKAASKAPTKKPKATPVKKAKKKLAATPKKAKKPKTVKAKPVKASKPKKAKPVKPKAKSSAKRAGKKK
UniProt P25098: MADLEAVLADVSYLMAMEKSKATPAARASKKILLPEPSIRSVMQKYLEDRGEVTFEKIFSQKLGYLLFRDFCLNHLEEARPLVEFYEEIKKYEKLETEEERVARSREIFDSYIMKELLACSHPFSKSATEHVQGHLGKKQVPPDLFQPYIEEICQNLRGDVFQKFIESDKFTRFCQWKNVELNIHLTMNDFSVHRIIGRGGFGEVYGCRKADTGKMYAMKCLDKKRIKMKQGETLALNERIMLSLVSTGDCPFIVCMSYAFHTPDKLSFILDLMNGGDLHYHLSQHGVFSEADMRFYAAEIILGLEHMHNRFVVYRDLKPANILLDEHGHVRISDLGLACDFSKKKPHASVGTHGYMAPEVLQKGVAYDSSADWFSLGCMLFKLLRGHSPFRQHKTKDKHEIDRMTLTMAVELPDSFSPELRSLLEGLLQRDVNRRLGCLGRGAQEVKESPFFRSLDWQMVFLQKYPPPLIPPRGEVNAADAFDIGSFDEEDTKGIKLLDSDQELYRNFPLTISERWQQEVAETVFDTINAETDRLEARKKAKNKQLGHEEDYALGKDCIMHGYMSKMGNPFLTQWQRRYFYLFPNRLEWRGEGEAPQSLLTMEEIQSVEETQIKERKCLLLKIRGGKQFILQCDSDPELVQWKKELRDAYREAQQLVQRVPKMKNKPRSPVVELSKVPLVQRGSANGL
UniProt Q92769, whole entry, looked up: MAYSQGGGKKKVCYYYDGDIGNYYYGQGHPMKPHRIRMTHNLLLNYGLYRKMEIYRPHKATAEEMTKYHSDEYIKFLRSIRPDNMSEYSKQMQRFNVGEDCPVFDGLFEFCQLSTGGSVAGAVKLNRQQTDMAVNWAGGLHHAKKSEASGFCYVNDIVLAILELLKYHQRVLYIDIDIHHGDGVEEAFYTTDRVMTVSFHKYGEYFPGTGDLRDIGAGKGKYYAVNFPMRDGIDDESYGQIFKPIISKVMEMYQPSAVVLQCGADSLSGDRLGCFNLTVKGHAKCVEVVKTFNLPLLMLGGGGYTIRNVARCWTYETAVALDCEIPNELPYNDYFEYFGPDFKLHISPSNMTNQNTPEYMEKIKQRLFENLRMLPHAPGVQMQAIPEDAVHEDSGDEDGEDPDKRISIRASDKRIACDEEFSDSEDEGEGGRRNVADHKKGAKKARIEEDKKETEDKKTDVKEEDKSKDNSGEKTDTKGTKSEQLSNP

What was measured:
Test in all cases: log2 fold change, soluble protein after heating vs DMSO (PISA); higher = thermal stabilisation; K562 lysate, 10 uM; active = over 0.2 and 3.5 SD of the protein, either way, in both replicates (recomputed)
[1] = compound: NCC(=O)Nc1ccc(-n2nc(C(F)(F)F)cc2-c2ccc3c(ccc4ccccc43)c2)cc1
In short: (§1)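 Dounce homogenisation of K562 pellets in PBS pH 7.4 with 1 mM MgCl2 produced a crude extract, used at 1 mg/mL protein. Exposure to 10 μM compound lasted 30 min, and aliquots were then heated for 3 min across 48°C-58°C, pooled and brought to 0.5% NP-40 at 4°C. The supernatant after 21,000xg for 90 min was quantified by TMTpro 16plex LC-MS/MS with channel sums equalised. Duplicate values are given as log-two fold change in thermal stability relative to solvent controls.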

vorinostat = compound: O=C(CCCCCCC(=O)Nc1ccccc1)NO [vorinostat]
In short: as §1

silmitasertib = compound: O=C(O)c1ccc2c(c1)nc(Nc1cccc(Cl)c1)c1ccncc12 [silmitasertib]
In short: as §1

[2] = compound: O=C1NC(=O)C(c2cnc3ccccn23)=C1c1cn2c3c(cc(F)cc13)CN(C(=O)N1CCCCC1)CC2
In short: as §1

entospletinib = compound: c1cn2cc(-c3ccc4cn[nH]c4c3)nc(Nc3ccc(N4CCOCC4)cc3)c2n1 [entospletinib]
In short: as §1

Measured: log2 fold change

GRWD1 (UniProt Q9BQ67)
inactive: [1] -0.016 | vorinostat -0.002 | silmitasertib -0.002 | [2] 0.02 | entospletinib -0.007

GRN (UniProt P28799)
inactive: vorinostat 0.073 | silmitasertib -0.036 | [2] 0.05 | entospletinib -0.029

GSDME (UniProt O60443)
inactive: vorinostat -0.2 | silmitasertib 0.062 | [2] -0.247 | entospletinib 0.069

GTF2H2 (UniProt Q13888)
inactive: [1] 0.011 | vorinostat -0.05 | silmitasertib 0.041 | [2] 0.044 | entospletinib 0.074

HAUS4 (UniProt Q9H6D7)
active: vorinostat -0.255
inactive: [1] -0.022 | silmitasertib 0.045 | [2] -0.017 | entospletinib -0.018

GTF2H2C (UniProt Q6P1K8)
inactive: [2] 0.148 | entospletinib -0.136

HDAC8 (UniProt Q9BY41)
inactive: [1] 0.057 | vorinostat -0.247 | silmitasertib 0.03 | [2] -0.064 | entospletinib 0.001

GRM5 (UniProt P41594)
inactive: vorinostat -0.143 | silmitasertib 0.209 | entospletinib -0.096

GTPBP6 (UniProt O43824)
inactive: [1] 0.069 | entospletinib 0.255

HAGH isoform 2 (UniProt Q16775)
inactive: vorinostat 0.068 | silmitasertib -0.004 | [2] 0.07

GSTM2 (UniProt P28161)
active: vorinostat 0.323 | silmitasertib 0.378
inactive: [1] 0.017 | entospletinib 0.044

H1-5 (UniProt P16401)
inactive: [1] 0.008 | vorinostat 0.154 | silmitasertib -0.024 | [2] 0.02 | entospletinib -0.004

GRAMD1A (UniProt Q96CP6)
inactive: vorinostat -0.133 | silmitasertib 0.024 | [2] 0.378

GRIPAP1 isoform 2 (UniProt Q4V328)
inactive: [2] 0.005

GTF2H4 (UniProt Q92759)
active: vorinostat -0.24
inactive: [1] 0.01 | silmitasertib -0.021 | [2] -0.021 | entospletinib 0.046

GTPBP1 (UniProt O00178)
inactive: [1] 0.003 | vorinostat -0.028 | silmitasertib 0.019 | [2] -0.009 | entospletinib 0.008

H3-2 (UniProt Q5TEC6)
inactive: [2] -0.079 | entospletinib -0.014

HAL (UniProt P42357)
inactive: vorinostat 0.26 | silmitasertib -0.497 | [2] 0.408 | entospletinib -0.289

HAUS2 (UniProt Q9NVX0)
inactive: [1] -0.052 | silmitasertib -0.037 | [2] 0.039 | entospletinib -0.029
active: vorinostat -0.514

GTF2F1 (UniProt P35269)
inactive: [1] 0.023 | vorinostat 0.104 | silmitasertib -0.005 | [2] 0.026 | entospletinib 0.01

GPSM3 (UniProt Q9Y4H4)
inactive: vorinostat 0.096 | silmitasertib 0.014 | [2] -0.022

GUCD1 isoform 3 (UniProt Q96NT3)
inactive: vorinostat 0.442 | silmitasertib 0.121 | [2] -0.014

HCFC2 (UniProt Q9Y5Z7)
inactive: [2] -0.329

GSTT1 (UniProt P30711)
inactive: [1] -0.058 | vorinostat 0.167 | silmitasertib 0.005 | [2] 0.022 | entospletinib -0.049

H1-0 (UniProt P07305)
inactive: [2] 0.051

HDLBP, A0A024R4E5
inactive: [1] 0.009 | silmitasertib -0.013 | [2] 0.004 | entospletinib 0.009
active: vorinostat -0.427

HAT1 (UniProt O14929)
inactive: [1] 0.022 | vorinostat -0.222 | silmitasertib -0.039 | [2] -0.008 | entospletinib -0.012

HBD (UniProt E9PEW8)
inactive: [1] -0.12 | [2] -0.079

GTF3C5 isoform 3 (UniProt Q9Y5Q8)
inactive: [1] 0.002 | silmitasertib 0.016 | [2] 0.04 | entospletinib -0.021
active: vorinostat -0.296

GSDMD (UniProt P57764)
inactive: [1] -0.078 | [2] -0.167

HACD2 (UniProt Q6Y1H2)
inactive: vorinostat 0.027 | silmitasertib 0.015

H6PD (UniProt O95479)
inactive: vorinostat 0.102 | silmitasertib -0.004 | [2] 0.239 | entospletinib -0.043

GRK2 (UniProt P25098)
active: vorinostat -0.225
inactive: [1] -0.055 | silmitasertib 0.066 | [2] -0.026 | entospletinib -0.006

GRSF1 (UniProt Q12849)
inactive: [1] 0.022 | vorinostat -0.012 | silmitasertib 0.021 | [2] -0.022 | entospletinib 0.019

HDAC2 (UniProt Q92769)
inactive: [1] 0.001 | silmitasertib -0.002 | [2] 0.057 | entospletinib -0.005

HEATR5B (UniProt Q9P2D3)
inactive: [1] 0 | vorinostat -0.128 | silmitasertib 0.014 | [2] 0.011 | entospletinib -0.021

GYG2 (UniProt O15488)
inactive: [1] -0.041 | vorinostat -0.079 | silmitasertib -0.027 | entospletinib 0.003

Retrieved one by one from the list above, three records:
HEATR5B (UniProt Q9P2D3)
inactive: [1] 0 | vorinostat -0.128 | silmitasertib 0.014 | [2] 0.011 | entospletinib -0.021

GRK2 (UniProt P25098)
active: vorinostat -0.225
inactive: [1] -0.055 | silmitasertib 0.066 | [2] -0.026 | entospletinib -0.006

HDAC2 (UniProt Q92769)
inactive: [1] 0.001 | silmitasertib -0.002 | [2] 0.057 | entospletinib -0.005
